Measurements reported in PubChem BioAssay AID1259405 (NCATS, 2018)
Shown is a random part of about 50,000 reagents. About 4,000 of them (8%) were called active. 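Mouse siRNA library applied to hamster cells; one well for each siRNA.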

- Test: 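Silenced genes that increase secreted GFP made by CHO cells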 (primary screen)
- Cell system: Chinese hamster CHO-K1 ovary cells with stable secreted eGFP expression
- Knock-down reagent: single siRNA against mouse genes, 0.8 pmol siRNA per well (2 µl of 400 nM stock)
- Time to read-out: 3 days
- Detection: 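Per-well intracellular GFP measured by laser scanning cytometry, plus viability from ATP luminescence, each relative to plate median of non-targeting control wells, in %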
- Reading the numbers: GFP, % of control: higher = more GFP per well, higher productivity; viability (ATP), % of control: higher = more viable cells (more ATP)
- Call rule: 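Called active when intracellular GFP, relative to negative control, is at or above 120%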

| gene symbol | PubChem SID | GFP, % of control | viability (ATP), % of control | activity call |
| --- | --- | --- | --- | --- |
| Cyp4v3 (cytochrome P450, family 4, subfamily v, polypeptide 3) | SID363573088 | 101 | 87.6 | inactive |
| Cyp4v3 (cytochrome P450, family 4, subfamily v, polypeptide 3) | SID363577664 | 95.5 | 95.8 | inactive |
| Cyp4v3 (cytochrome P450, family 4, subfamily v, polypeptide 3) | SID363581184 | 58 | 73.5 | inactive |
| Qars1 (glutaminyl-tRNA synthetase 1) | SID363572586 | 128 | 110 | active |
| Qars1 (glutaminyl-tRNA synthetase 1) | SID363577866 | 77.1 | 79.8 | inactive |
| Qars1 (glutaminyl-tRNA synthetase 1) | SID363582090 | 82.6 | 118 | inactive |
| Spata19 (spermatogenesis associated 19) | SID363540770 | 95.9 | 104 | inactive |
| Spata19 (spermatogenesis associated 19) | SID363543221 | 85.9 | 70.9 | inactive |
| Spata19 (spermatogenesis associated 19) | SID363552714 | 108 | 89.8 | inactive |
| Flt1 (FMS-like tyrosine kinase 1) | SID363570751 | 38.1 | 57.6 | inactive |
| Elk3 (ETS transcription factor ELK3) | SID363572487 | 44.1 | 36.3 | inactive |
| Elk3 (ETS transcription factor ELK3) | SID363577767 | 72.2 | 75.2 | inactive |
| Elk3 (ETS transcription factor ELK3) | SID363581991 | 116 | 102 | inactive |
| Arl6ip1 (ADP-ribosylation factor-like 6 interacting protein 1) | SID363546836 | 26.6 | 9.67 | inactive |
| Arl6ip1 (ADP-ribosylation factor-like 6 interacting protein 1) | SID363548592 | 65 | 78.8 | inactive |
| Arl6ip1 (ADP-ribosylation factor-like 6 interacting protein 1) | SID363560770 | 90.3 | 93.5 | inactive |
| Mtf2 (metal response element binding transcription factor 2) | SID363573660 | 84 | 89.7 | inactive |
| Mtf2 (metal response element binding transcription factor 2) | SID363581404 | 70.4 | 74.1 | inactive |
| Mtf2 (metal response element binding transcription factor 2) | SID363583868 | 111 | 102 | inactive |
| Or8b42 (olfactory receptor family 8 subfamily B member 42) | SID363554658 | 89.7 | 74.7 | inactive |
| Or8b42 (olfactory receptor family 8 subfamily B member 42) | SID363568105 | 73.3 | 39.4 | inactive |
| Or8b42 (olfactory receptor family 8 subfamily B member 42) | SID363586164 | 79.5 | 111 | inactive |
| Ralgapb (Ral GTPase activating protein, beta subunit (non-catalytic)) | SID363546775 | 39.9 | 30.8 | inactive |
| Ralgapb (Ral GTPase activating protein, beta subunit (non-catalytic)) | SID363548531 | 77.6 | 101 | inactive |
| Ralgapb (Ral GTPase activating protein, beta subunit (non-catalytic)) | SID363560709 | 127 | 81.8 | active |
| Dnajc18 (DnaJ heat shock protein family (Hsp40) member C18) | SID363541628 | 74.4 | 76.6 | inactive |
| Dnajc18 (DnaJ heat shock protein family (Hsp40) member C18) | SID363553220 | 73 | 66.9 | inactive |
| Dnajc18 (DnaJ heat shock protein family (Hsp40) member C18) | SID363566544 | 83.6 | 64.7 | inactive |
| Gpsm1 (G-protein signalling modulator 1 (AGS3-like, C. elegans)) | SID363545786 | 65.6 | 46.6 | inactive |
| Gpsm1 (G-protein signalling modulator 1 (AGS3-like, C. elegans)) | SID363549299 | 89.3 | 90.1 | inactive |
| Gpsm1 (G-protein signalling modulator 1 (AGS3-like, C. elegans)) | SID363563105 | 53.9 | 48.3 | inactive |
| Zng1 (Zn regulated GTPase metalloprotein activator 1) | SID363547157 | 44.3 | 72.1 | inactive |
| Zng1 (Zn regulated GTPase metalloprotein activator 1) | SID363549969 | 58.9 | 96 | inactive |
| Zng1 (Zn regulated GTPase metalloprotein activator 1) | SID363588023 | 120 | 122 | inactive |
| Garnl3 (GTPase activating RANGAP domain-like 3) | SID363545392 | 88.5 | 122 | inactive |
| Garnl3 (GTPase activating RANGAP domain-like 3) | SID363548905 | 79.4 | 94.1 | inactive |
| Garnl3 (GTPase activating RANGAP domain-like 3) | SID363562711 | 88.2 | 67.8 | inactive |
| Tspan6 (tetraspanin 6) | SID363555158 | 98.4 | 85.4 | inactive |
| Tspan6 (tetraspanin 6) | SID363563819 | 41.8 | 41.1 | inactive |
| Tspan6 (tetraspanin 6) | SID363587365 | 87.8 | 112 | inactive |
| Tead1 (TEA domain family member 1) | SID363573709 | 146 | 92.8 | active |
| Tead1 (TEA domain family member 1) | SID363581453 | 81.6 | 78.6 | inactive |
| Tead1 (TEA domain family member 1) | SID363583917 | 101 | 112 | inactive |
| Cfap91 (cilia and flagella associated protein 91) | SID363542425 | 74.3 | 100 | inactive |
| Cfap91 (cilia and flagella associated protein 91) | SID363551916 | 79.5 | 72.3 | inactive |
| Cfap91 (cilia and flagella associated protein 91) | SID363559521 | 89.2 | 89.6 | inactive |
| Ndrg4 (N-myc downstream regulated gene 4) | SID363562219 | 63.1 | 51.8 | inactive |
| Ndrg4 (N-myc downstream regulated gene 4) | SID363567357 | 58.7 | 77.8 | inactive |
| Ndrg4 (N-myc downstream regulated gene 4) | SID363584714 | 103 | 66.7 | inactive |
| Cfap418 (cilia and flagella associated protein 418) | SID363543772 | 69.5 | 92.8 | inactive |
| Cfap418 (cilia and flagella associated protein 418) | SID363551508 | 95 | 96.1 | inactive |
| Cfap418 (cilia and flagella associated protein 418) | SID363559113 | 56.5 | 69.5 | inactive |
| Lrrc72 (leucine rich repeat containing 72) | SID363543345 | 67.5 | 86.5 | inactive |
| Lrrc72 (leucine rich repeat containing 72) | SID363552838 | 102 | 56.3 | inactive |
| Lrrc72 (leucine rich repeat containing 72) | SID363558686 | 83 | 56.5 | inactive |
| Cryba1 (crystallin, beta A1) | SID363550129 | 86.9 | 75.2 | inactive |
| Cryba1 (crystallin, beta A1) | SID363564638 | 212 | 96.3 | active |
| Cryba1 (crystallin, beta A1) | SID363588183 | 102 | 104 | inactive |
| Cryba1 (crystallin, beta A1) | SID363589716 | 83.6 | 93.9 | inactive |
| Cryba1 (crystallin, beta A1) | SID363589717 | 103 | 96.7 | inactive |
| Cryba1 (crystallin, beta A1) | SID363589718 | 118 | 92.6 | inactive |
| Klhl8 (kelch-like 8) | SID363572293 | 131 | 80.9 | active |
| Klhl8 (kelch-like 8) | SID363574053 | 129 | 115 | active |
| Fen1 (flap structure specific endonuclease 1) | SID363569758 | 90.9 | 104 | inactive |
| Fen1 (flap structure specific endonuclease 1) | SID363576798 | 144 | 126 | active |
| Fen1 (flap structure specific endonuclease 1) | SID363578206 | 57.3 | 55.5 | inactive |
| Ythdf1 (YTH N6-methyladenosine RNA binding protein 1) | SID363556788 | 47.7 | 57 | inactive |
| Ythdf1 (YTH N6-methyladenosine RNA binding protein 1) | SID363563692 | 66.3 | 79.3 | inactive |
| Ythdf1 (YTH N6-methyladenosine RNA binding protein 1) | SID363587238 | 60.6 | 103 | inactive |
| Trim15 (tripartite motif-containing 15) | SID363572679 | 54.6 | 74.3 | inactive |
| Trim15 (tripartite motif-containing 15) | SID363577959 | 75.6 | 69.9 | inactive |
| Trim15 (tripartite motif-containing 15) | SID363582183 | 119 | 123 | inactive |
| Ssr4 (signal sequence receptor, delta) | SID363556239 | 58.2 | 60.2 | inactive |
| Ssr4 (signal sequence receptor, delta) | SID363586689 | 87.3 | 102 | inactive |
| Ssr4 (signal sequence receptor, delta) | SID363588797 | 62.1 | 80.8 | inactive |
| Sack1f (scaffolding CK1 anchoring protein F) | SID363562074 | 66.5 | 54.8 | inactive |
| Sack1f (scaffolding CK1 anchoring protein F) | SID363567212 | 92.2 | 51.4 | inactive |
| Sack1f (scaffolding CK1 anchoring protein F) | SID363584569 | 88.1 | 69.7 | inactive |
| F2rl1 (F2R like trypsin receptor 1) | SID363571374 | 78.9 | 63.4 | inactive |
| F2rl1 (F2R like trypsin receptor 1) | SID363571726 | 77.7 | 76.7 | inactive |
| F2rl1 (F2R like trypsin receptor 1) | SID363572078 | 73 | 84 | inactive |
| Taar9 (trace amine-associated receptor 9) | SID363544848 | 86.7 | 77.3 | inactive |
| Taar9 (trace amine-associated receptor 9) | SID363551176 | 83.3 | 86.3 | inactive |
| Taar9 (trace amine-associated receptor 9) | SID363557725 | 93.1 | 36.5 | inactive |
| Rps10 (ribosomal protein S10) | SID363554043 | 53.4 | 71.5 | inactive |
| Rps10 (ribosomal protein S10) | SID363562000 | 90.6 | 120 | inactive |
| Rps10 (ribosomal protein S10) | SID363565738 | 91.9 | 78.2 | inactive |
| Tas2r113 (taste receptor, type 2, member 113) | SID363556499 | 44.1 | 53.1 | inactive |
| Tas2r113 (taste receptor, type 2, member 113) | SID363586949 | 81 | 89.5 | inactive |
| Tas2r113 (taste receptor, type 2, member 113) | SID363589057 | 65.2 | 84.5 | inactive |
| B3gat2 (beta-1,3-glucuronyltransferase 2) | SID363570610 | 112 | 124 | inactive |
| B3gat2 (beta-1,3-glucuronyltransferase 2) | SID363579410 | 16.1 | 45 | inactive |
| B3gat2 (beta-1,3-glucuronyltransferase 2) | SID363583282 | 94.2 | 103 | inactive |
| Atf7 (activating transcription factor 7) | SID363573518 | 72.4 | 58 | inactive |
| Atf7 (activating transcription factor 7) | SID363588757 | 84.6 | 78.4 | inactive |
| Coq8b (coenzyme Q8B) | SID363572735 | 35.8 | 40.6 | inactive |
| Coq8b (coenzyme Q8B) | SID363578015 | 69.5 | 79.4 | inactive |
| Coq8b (coenzyme Q8B) | SID363582239 | 68.6 | 145 | inactive |
| Zfp444 (zinc finger protein 444) | SID363573381 | 46.2 | 54.2 | inactive |
| Zfp444 (zinc finger protein 444) | SID363588620 | 91.3 | 97.6 | inactive |
| Pptc7 (PTC7 protein phosphatase homolog) | SID363575230 | 74.6 | 84.6 | inactive |
| Pptc7 (PTC7 protein phosphatase homolog) | SID363580862 | 58.3 | 54.2 | inactive |
| Pptc7 (PTC7 protein phosphatase homolog) | SID363582974 | 73.9 | 96.8 | inactive |
| Lgals8 (lectin, galactose binding, soluble 8) | SID363541280 | 85.3 | 60.3 | inactive |
| Lgals8 (lectin, galactose binding, soluble 8) | SID363555907 | 35.5 | 50.1 | inactive |
| Lgals8 (lectin, galactose binding, soluble 8) | SID363566196 | 52.7 | 61.1 | inactive |
| Stag2 (STAG2 cohesin complex component) | SID363545879 | 121 | 103 | active |
| Stag2 (STAG2 cohesin complex component) | SID363549392 | 83.2 | 64.3 | inactive |
| Stag2 (STAG2 cohesin complex component) | SID363563198 | 62.3 | 57.7 | inactive |

No new results follow: entries from further up.
| gene symbol | PubChem SID | GFP, % of control | viability (ATP), % of control | activity call |
| --- | --- | --- | --- | --- |
| Cyp4v3 (cytochrome P450, family 4, subfamily v, polypeptide 3) | SID363577664 | 95.5 | 95.8 | inactive |
| Cyp4v3 (cytochrome P450, family 4, subfamily v, polypeptide 3) | SID363581184 | 58 | 73.5 | inactive |
| Qars1 (glutaminyl-tRNA synthetase 1) | SID363572586 | 128 | 110 | active |
| Qars1 (glutaminyl-tRNA synthetase 1) | SID363577866 | 77.1 | 79.8 | inactive |
| Qars1 (glutaminyl-tRNA synthetase 1) | SID363582090 | 82.6 | 118 | inactive |
| Spata19 (spermatogenesis associated 19) | SID363540770 | 95.9 | 104 | inactive |
| Spata19 (spermatogenesis associated 19) | SID363543221 | 85.9 | 70.9 | inactive |
| Spata19 (spermatogenesis associated 19) | SID363552714 | 108 | 89.8 | inactive |
| Flt1 (FMS-like tyrosine kinase 1) | SID363570751 | 38.1 | 57.6 | inactive |
| Elk3 (ETS transcription factor ELK3) | SID363572487 | 44.1 | 36.3 | inactive |
| Elk3 (ETS transcription factor ELK3) | SID363577767 | 72.2 | 75.2 | inactive |
| Elk3 (ETS transcription factor ELK3) | SID363581991 | 116 | 102 | inactive |
| Arl6ip1 (ADP-ribosylation factor-like 6 interacting protein 1) | SID363546836 | 26.6 | 9.67 | inactive |
| Arl6ip1 (ADP-ribosylation factor-like 6 interacting protein 1) | SID363548592 | 65 | 78.8 | inactive |
| Arl6ip1 (ADP-ribosylation factor-like 6 interacting protein 1) | SID363560770 | 90.3 | 93.5 | inactive |
| Mtf2 (metal response element binding transcription factor 2) | SID363573660 | 84 | 89.7 | inactive |
